From PMC3495302, “The putative K^+ channel subunit AtKCO3 forms stable dimers in Arabidopsis” (Frontiers in Plant Science, 2012)
Results are given in words; binding and its absence hold for the method and conditions named. Some results given as binding are weak or reduced against the parent protein; the word gives no strength. For some assays here: Tags and fused reporters may be left off the sequences shown.

Columns and labels:
[1] = target: AtKCO3::GFP (Arabidopsis thaliana) (UniProt Q9XFR0); assay: velocity sucrose gradient centrifugation; as with NaCl, but leaf homogenate in 40 mM KCl and gradient with 20 mM KCl, 0.1% Triton X-100; 200,000 x g, 25 h, 4°C; fractions by SDS-PAGE and western blot
[2] = target: AtKCO3::GFP (Arabidopsis thaliana) (UniProt Q9XFR0); assay: SDS-PAGE and western blot (oligomers not fully denatured); total leaf extract, samples in 1% SDS, 0.3% 2-mercaptoethanol, 95°C for 4 min; blot with anti-KCO3
[3] = target: AtKCO3 (Arabidopsis thaliana) (UniProt Q9XFR0); assay: velocity sucrose gradient centrifugation; as with NaCl, but leaf homogenate in 40 mM KCl and gradient with 20 mM KCl, 0.1% Triton X-100; 200,000 x g, 25 h, 4°C; fractions by SDS-PAGE and western blot
[4] = target: γTIP (Arabidopsis thaliana (endogenous in leaves)) (UniProt P25818); assay: as above
[5] = target: γTIP (Arabidopsis thaliana (endogenous in leaves)) (UniProt P25818); assay: SDS-PAGE and western blot (oligomers not fully denatured); fractions of an isopycnic sucrose gradient of leaf microsomes; blot with anti-γTIP

B1: AtKCO3::GFP (natural protein, Arabidopsis thaliana, UniProt Q9XFR0 1-260, looked up)
chain: MPMTPSEFKNRLLFGSLPRSSSDPTDLQFTEPNVPPSLFSLPEHNDDTATDMAPDQETEQSVSKSIARQALALLVVYLSLGVLIYWLTLDSDNAYQTHPVAVALYFFVVTFCGFLIVHFVVKIGWLDSFCFSVMMVTTVGFGDRAFNTWLGTFLAAVWLLVSTLAVARAFLFLADARADKRNRERAKKVLGESISISQFFAADIDNDGRLSLAEFAIYKLKQMEKITQEDFIQICNQFDKLDRTQSGRITLVDLTTATSV
notes: AtKCO3 of Arabidopsis thaliana, locus AT5G46360; fusion of about 60 kDa; Made with pBI-35S-10H-GFP-JFH1 (Hong et al., 1999); the vector's name may mean further tag residues (surmise); source: transgenic Arabidopsis (CaMV 35S promoter, p35S-KCO3::GFP), in leaf homogenate; not shown: GFP, C-terminal, kept
[1]
  binding: binds
[2]
  binding: binds

B2: AtKCO3 (natural protein, Arabidopsis thaliana, UniProt Q9XFR0 1-260, looked up)
chain: MPMTPSEFKNRLLFGSLPRSSSDPTDLQFTEPNVPPSLFSLPEHNDDTATDMAPDQETEQSVSKSIARQALALLVVYLSLGVLIYWLTLDSDNAYQTHPVAVALYFFVVTFCGFLIVHFVVKIGWLDSFCFSVMMVTTVGFGDRAFNTWLGTFLAAVWLLVSTLAVARAFLFLADARADKRNRERAKKVLGESISISQFFAADIDNDGRLSLAEFAIYKLKQMEKITQEDFIQICNQFDKLDRTQSGRITLVDLTTATSV
notes: AtKCO3, putative one-pore K+ channel subunit of Arabidopsis thaliana, locus AT5G46360; cDNA from seedlings of ecotype C24; calculated mass 29 kDa; The AtKCO3 cDNA without tag was put into pBinAR-Kan; also called wild-type protein; source: transgenic Arabidopsis (CaMV 35S promoter, p35S-KCO3), in leaf homogenate
[3]
  binding: binds

B3: γTIP (natural protein, UniProt P25818 1-251, looked up)
chain: MPIRNIAIGRPDEATRPDALKAALAEFISTLIFVVAGSGSGMAFNKLTENGATTPSGLVAAAVAHAFGLFVAVSVGANISGGHVNPAVTFGAFIGGNITLLRGILYWIAQLLGSVVACLILKFATGGLAVPAFGLSAGVGVLNAFVFEIVMTFGLVYTVYATAIDPKNGSLGTIAPIAIGFIVGANILAGGAFSGASMNPAVAFGPAVVSWTWTNHWVYWAGPLVGGGIAGLIYEVFFINTTHEQLPTTDY
notes: gamma-TIP, tonoplast aquaporin of Arabidopsis; detected with an antibody against its C-terminal nine amino acids; also called tonoplast aquaporin γTIP; source: endogenous, Arabidopsis leaf homogenate or microsomes
[4]
  binding: binds
[5]
  binding: binds
